Experimental data taken from article PMC8732282.
No constants are given. Whether binding was seen depends on the method and setting. In cells and extracts the contact can be indirect. Here binding means that the protein was enriched with, or labelled near, the bait; the list need not be complete.

Protein sequences, listed by entry. Tags and fused reporters are not part of them.
UniProt P53350: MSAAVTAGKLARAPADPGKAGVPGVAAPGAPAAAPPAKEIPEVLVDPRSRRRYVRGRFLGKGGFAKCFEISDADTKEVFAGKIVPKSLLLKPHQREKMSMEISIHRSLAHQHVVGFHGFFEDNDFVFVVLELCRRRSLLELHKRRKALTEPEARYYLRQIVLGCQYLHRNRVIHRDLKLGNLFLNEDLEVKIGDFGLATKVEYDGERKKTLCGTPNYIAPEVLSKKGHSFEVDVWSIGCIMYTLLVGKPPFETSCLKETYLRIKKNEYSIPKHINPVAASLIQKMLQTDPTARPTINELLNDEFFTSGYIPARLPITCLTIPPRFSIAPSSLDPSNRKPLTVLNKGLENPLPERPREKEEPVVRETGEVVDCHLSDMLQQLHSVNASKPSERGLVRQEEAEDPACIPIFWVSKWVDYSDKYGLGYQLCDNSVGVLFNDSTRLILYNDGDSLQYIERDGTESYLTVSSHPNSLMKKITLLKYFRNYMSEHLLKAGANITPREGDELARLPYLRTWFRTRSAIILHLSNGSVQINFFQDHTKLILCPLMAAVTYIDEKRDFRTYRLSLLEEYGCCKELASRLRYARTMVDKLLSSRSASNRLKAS
UniProt Q8N122: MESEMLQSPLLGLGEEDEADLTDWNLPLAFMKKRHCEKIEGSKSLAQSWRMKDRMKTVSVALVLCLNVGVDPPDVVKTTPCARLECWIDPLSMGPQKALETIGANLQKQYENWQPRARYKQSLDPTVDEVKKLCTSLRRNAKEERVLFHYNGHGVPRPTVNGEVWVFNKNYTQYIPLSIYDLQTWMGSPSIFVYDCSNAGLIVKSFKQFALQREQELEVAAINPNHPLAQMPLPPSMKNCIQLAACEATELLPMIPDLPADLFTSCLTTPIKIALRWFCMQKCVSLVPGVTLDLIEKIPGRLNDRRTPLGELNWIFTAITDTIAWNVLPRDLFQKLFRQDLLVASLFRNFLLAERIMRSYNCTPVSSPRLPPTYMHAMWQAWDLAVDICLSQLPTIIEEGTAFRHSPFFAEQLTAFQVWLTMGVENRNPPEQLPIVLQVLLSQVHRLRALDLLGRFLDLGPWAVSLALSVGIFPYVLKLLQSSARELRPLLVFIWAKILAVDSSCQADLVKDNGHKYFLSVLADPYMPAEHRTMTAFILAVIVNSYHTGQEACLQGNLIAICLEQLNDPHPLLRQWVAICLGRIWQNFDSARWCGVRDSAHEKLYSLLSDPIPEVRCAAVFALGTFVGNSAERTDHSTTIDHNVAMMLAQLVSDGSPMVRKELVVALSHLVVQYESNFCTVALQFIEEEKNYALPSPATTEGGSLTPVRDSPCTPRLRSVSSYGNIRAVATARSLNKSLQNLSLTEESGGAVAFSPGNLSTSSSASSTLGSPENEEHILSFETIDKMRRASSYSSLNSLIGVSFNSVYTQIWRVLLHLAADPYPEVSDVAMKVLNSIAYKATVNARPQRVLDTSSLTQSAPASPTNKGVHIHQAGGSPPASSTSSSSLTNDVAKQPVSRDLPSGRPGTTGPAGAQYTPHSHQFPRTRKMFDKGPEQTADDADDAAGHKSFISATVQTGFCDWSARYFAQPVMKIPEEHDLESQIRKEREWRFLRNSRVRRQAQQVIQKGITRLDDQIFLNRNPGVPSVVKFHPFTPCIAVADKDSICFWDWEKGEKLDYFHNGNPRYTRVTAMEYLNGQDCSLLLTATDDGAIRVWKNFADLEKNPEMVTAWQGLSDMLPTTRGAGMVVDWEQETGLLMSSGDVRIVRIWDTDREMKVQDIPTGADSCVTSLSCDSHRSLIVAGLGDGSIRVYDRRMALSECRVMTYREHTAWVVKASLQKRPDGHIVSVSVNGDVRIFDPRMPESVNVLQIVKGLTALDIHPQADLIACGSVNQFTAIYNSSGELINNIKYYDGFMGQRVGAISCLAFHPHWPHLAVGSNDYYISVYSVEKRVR

Target: FLAG-tagged GRB7 (growth factor receptor-bound protein 7) (UniProt Q14451)
Test: affinity purification with mass spectrometry; HCT116 cells expressing FLAG-GRB7 against control cells; anti-FLAG antibody-conjugated beads, precipitates analysed by MS; proteins enriched at least threefold

Row | Substance | binding
1 | polo-like kinase-1 (PLK1) (from UniProt P53350 1-603) (enzyme) | binds
2 | regulatory associated protein of mTOR complex 1 (RPTOR) (from UniProt Q8N122 1-1335) | binds
